# Values quoted from earlier work, collected in patent US11485714B2, “Hydroxyethylamine-based piperazine compounds, and methods of producing and using the same for treating disease” (National Institute of Immunology, priority 2020, dated 2022).
# At least one structure is not confirmed: it was looked up by name or label, or the drawing left a doubt.
# Tested on: P. falciparum, strain IPC 3445
# Details: strain IPC 3445 exposed to dihydroartemisinin; cited from earlier work
smiles,measurement,value
"C[C@H]1[C@@H](O)O[C@@H]2O[C@@]3(C)CC[C@H]4[C@H](C)CC[C@@H]1[C@@]24OO3 [Dihydroartemisinin, reference compound]",ring-stage survival assay (RSA0-3 h) value,27.3%
